This is one part of the list.
Key:
Test in all cases: log2 fold change, soluble protein after heating vs DMSO (PISA); higher = thermal stabilisation; K562 lysate, 10 uM; active = over 0.2 and 3.5 SD of the protein, either way, in both replicates (recomputed)
erlotinib = compound: C#Cc1cccc(Nc2ncnc3cc(OCCOC)c(OCCOC)cc23)c1 [erlotinib]
How it was run: (§1)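 K562 pellets were dounce-homogenised in PBS pH 7.4 with 1 mM MgCl2, and the crude extract at 1 mg/mL protein was treated with 10 μM compound for 30 min. Aliquots were heated for 3 min across 48°C-58°C, pooled, and brought to 0.5% NP-40 at 4°C; soluble protein was the supernatant after 21,000xg for 90 min. Soluble protein was quantified by TMTpro 16plex LC-MS/MS with channel sums equalised, and reported as log2 fold change in thermal stability against DMSO controls, with values from duplicates.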

Amino acid sequences for entries named in this document (tags omitted). A change or cut given only in a name is not applied to a line headed by its entry.
UniProt P51788: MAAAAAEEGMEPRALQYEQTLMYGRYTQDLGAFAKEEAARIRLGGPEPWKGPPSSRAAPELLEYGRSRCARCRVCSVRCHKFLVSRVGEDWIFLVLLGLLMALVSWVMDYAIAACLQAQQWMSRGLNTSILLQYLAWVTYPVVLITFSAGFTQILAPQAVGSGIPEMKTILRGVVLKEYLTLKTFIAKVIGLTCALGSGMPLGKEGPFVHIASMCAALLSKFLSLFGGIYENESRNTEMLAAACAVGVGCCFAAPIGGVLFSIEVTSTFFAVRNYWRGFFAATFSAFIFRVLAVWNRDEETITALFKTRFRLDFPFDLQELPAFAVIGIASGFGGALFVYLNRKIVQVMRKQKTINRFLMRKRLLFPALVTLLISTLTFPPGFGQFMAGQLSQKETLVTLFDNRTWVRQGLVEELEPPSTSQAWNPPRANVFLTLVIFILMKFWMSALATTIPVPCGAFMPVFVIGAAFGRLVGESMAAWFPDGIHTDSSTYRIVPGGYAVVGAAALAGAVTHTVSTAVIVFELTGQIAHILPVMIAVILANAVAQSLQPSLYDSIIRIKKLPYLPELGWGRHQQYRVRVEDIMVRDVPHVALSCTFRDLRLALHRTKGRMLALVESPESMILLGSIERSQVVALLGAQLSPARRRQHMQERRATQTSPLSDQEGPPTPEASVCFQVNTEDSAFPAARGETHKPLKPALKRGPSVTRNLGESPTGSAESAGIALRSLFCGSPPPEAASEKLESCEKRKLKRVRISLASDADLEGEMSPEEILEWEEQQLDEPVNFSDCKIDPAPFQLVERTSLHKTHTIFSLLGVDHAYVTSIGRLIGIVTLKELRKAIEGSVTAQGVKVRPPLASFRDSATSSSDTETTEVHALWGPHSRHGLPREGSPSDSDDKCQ
UniProt Q8IZ52: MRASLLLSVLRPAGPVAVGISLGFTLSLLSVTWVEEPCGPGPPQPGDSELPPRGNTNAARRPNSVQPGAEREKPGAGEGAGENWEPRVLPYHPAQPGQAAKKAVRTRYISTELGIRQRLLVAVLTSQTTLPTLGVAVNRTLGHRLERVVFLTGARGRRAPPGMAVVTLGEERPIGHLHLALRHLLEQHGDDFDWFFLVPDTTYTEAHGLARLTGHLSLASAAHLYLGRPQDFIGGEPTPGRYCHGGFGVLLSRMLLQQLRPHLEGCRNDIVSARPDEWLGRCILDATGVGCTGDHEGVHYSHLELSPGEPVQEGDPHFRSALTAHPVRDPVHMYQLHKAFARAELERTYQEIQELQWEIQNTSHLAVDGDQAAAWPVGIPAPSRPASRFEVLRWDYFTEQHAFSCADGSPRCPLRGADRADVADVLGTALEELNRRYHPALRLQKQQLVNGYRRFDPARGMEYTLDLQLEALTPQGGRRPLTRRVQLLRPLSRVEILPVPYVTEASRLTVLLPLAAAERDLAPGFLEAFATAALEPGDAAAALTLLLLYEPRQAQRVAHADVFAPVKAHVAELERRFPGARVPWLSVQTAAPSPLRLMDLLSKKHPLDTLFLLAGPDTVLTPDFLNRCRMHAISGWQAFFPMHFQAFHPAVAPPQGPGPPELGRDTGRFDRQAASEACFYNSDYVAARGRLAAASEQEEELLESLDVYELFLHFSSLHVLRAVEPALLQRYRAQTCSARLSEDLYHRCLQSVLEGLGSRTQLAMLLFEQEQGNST
UniProt Q9HAW4: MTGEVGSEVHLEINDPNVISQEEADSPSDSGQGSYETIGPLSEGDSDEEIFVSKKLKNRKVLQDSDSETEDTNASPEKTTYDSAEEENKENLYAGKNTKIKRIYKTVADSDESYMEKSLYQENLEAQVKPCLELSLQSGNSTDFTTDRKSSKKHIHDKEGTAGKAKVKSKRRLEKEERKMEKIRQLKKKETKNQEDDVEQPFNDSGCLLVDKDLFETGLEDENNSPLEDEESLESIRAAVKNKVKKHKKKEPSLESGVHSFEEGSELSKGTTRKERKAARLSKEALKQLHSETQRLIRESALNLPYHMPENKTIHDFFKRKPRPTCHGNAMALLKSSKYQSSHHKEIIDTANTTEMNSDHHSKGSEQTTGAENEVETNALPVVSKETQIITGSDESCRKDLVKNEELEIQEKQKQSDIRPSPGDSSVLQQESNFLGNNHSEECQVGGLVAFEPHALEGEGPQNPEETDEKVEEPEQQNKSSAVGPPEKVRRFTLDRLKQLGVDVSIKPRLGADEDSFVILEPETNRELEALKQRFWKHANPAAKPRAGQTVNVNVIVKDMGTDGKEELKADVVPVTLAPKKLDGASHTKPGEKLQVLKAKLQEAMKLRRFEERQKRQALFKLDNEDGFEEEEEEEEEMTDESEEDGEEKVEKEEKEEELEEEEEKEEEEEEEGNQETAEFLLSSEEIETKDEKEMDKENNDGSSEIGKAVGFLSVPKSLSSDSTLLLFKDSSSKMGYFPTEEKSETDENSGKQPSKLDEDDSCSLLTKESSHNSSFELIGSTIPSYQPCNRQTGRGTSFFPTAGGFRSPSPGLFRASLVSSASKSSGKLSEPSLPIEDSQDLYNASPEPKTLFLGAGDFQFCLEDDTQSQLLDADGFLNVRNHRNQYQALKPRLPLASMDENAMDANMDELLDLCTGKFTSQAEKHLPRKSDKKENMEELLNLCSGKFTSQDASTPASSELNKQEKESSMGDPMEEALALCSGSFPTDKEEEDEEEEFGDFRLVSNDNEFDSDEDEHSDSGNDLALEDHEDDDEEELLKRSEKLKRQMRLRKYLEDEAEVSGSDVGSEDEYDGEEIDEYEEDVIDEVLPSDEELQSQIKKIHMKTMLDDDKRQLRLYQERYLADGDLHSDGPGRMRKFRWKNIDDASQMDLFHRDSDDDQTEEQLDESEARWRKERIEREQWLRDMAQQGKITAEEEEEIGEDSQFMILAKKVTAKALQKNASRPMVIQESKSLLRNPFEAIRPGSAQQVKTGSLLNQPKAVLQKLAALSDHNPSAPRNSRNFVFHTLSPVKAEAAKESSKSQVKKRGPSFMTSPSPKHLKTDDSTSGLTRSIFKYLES
UniProt P49759: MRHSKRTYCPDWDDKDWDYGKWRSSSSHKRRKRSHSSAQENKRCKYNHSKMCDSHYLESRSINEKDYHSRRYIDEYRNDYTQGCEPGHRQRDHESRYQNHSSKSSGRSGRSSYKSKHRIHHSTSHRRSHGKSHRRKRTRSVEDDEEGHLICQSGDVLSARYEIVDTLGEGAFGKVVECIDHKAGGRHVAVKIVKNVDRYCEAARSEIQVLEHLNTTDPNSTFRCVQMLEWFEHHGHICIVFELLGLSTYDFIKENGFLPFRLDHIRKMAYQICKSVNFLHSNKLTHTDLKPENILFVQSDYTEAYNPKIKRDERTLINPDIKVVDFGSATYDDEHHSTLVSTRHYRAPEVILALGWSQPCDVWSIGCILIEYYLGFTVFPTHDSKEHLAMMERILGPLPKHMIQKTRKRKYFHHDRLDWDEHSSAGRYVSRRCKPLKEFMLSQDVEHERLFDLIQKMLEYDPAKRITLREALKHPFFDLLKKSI
UniProt Q86X52: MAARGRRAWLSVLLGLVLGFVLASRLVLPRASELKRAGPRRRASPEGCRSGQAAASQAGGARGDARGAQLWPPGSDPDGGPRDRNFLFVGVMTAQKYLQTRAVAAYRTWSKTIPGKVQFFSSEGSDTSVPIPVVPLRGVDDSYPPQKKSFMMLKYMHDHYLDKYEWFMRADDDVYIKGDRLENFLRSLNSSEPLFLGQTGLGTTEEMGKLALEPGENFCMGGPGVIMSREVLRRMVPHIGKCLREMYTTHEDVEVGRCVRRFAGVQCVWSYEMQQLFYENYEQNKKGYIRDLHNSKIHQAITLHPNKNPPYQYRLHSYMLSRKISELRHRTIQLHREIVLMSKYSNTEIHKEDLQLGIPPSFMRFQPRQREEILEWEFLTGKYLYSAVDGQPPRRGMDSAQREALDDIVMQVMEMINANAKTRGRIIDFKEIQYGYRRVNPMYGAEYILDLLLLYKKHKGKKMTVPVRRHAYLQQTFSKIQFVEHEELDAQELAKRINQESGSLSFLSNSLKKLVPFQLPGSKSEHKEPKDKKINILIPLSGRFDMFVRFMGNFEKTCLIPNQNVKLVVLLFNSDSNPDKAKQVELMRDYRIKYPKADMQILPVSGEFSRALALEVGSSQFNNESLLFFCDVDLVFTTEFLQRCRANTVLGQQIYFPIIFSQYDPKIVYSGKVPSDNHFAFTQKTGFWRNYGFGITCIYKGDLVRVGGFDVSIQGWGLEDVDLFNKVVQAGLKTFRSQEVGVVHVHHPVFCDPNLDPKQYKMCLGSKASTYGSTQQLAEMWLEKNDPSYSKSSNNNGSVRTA
UniProt P62633: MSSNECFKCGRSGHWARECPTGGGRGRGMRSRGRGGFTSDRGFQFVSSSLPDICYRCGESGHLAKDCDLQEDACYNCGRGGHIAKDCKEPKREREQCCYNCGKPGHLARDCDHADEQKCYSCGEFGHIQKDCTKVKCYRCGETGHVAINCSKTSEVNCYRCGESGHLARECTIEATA
UniProt P49760, whole entry, looked up: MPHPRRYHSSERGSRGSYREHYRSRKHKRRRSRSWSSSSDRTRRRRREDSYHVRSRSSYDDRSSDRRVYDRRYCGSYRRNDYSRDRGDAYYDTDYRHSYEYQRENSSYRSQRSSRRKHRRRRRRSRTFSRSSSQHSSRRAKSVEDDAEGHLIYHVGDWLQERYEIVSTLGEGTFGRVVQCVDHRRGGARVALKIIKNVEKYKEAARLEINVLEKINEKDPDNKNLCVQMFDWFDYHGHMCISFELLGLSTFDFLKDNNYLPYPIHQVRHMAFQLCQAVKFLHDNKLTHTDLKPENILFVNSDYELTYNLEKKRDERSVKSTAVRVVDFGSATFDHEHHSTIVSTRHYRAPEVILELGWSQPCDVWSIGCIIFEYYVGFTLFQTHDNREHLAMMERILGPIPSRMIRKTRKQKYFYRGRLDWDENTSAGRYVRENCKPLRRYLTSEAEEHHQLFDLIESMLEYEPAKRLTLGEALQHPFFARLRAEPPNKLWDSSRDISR
UniProt Q9Y240: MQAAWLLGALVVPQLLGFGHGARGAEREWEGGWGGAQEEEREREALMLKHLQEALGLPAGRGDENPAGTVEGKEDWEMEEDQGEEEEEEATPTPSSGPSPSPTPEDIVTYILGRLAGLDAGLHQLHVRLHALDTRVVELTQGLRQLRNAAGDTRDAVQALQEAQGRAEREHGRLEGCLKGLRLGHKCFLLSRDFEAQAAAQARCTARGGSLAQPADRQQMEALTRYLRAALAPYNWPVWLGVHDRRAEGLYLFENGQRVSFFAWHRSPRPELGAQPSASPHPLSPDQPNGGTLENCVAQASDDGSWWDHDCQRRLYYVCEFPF
UniProt Q8WVB6, whole entry, looked up: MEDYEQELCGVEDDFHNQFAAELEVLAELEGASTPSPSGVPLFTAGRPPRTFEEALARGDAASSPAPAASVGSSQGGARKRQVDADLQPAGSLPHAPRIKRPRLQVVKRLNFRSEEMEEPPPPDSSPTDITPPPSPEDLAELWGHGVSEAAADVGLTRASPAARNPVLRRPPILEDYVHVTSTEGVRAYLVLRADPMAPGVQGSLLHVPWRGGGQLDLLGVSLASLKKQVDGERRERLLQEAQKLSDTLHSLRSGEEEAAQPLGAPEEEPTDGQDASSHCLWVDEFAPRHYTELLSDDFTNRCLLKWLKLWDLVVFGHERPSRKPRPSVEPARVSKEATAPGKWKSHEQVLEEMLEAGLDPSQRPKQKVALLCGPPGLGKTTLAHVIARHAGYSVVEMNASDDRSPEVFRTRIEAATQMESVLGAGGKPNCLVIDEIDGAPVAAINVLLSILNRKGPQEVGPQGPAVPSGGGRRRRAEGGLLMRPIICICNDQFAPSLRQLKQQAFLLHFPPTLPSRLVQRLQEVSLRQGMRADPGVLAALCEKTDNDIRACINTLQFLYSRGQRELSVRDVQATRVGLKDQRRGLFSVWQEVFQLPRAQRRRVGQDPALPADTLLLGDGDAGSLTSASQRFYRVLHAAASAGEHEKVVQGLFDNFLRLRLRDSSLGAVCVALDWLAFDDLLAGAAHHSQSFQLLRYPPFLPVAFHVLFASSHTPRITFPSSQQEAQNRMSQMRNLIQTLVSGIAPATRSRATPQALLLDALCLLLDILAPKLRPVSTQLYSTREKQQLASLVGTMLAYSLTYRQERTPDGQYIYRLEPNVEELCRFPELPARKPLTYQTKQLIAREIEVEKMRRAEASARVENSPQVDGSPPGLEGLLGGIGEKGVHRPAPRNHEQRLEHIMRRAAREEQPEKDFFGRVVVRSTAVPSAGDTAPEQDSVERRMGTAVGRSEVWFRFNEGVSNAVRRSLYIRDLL
UniProt Q9BW66: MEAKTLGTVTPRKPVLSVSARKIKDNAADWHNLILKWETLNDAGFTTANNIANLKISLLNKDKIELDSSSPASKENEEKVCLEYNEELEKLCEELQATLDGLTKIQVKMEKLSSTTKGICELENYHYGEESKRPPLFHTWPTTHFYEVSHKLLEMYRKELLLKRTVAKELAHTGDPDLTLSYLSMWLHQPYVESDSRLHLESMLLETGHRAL

[1] = compound: C/C(=N\NC(=O)C1=CC(=CC=C1)S(=O)(=O)N2CCOCC2)/C3=C(C=CC(=C3)Cl)O
How it was run: as §1

[2] = compound: C1=CC(=CC=C1C2=NC3=C(N2)C=C(C=C3)C(=O)N)OC4=CC=C(C=C4)Cl
How it was run: as §1

[3] = compound: C1=CC2=C(C=CC(=C2)/C=C\3/C(=O)NC(=NCC4=CC=CS4)S3)N=C1
How it was run: as §1

[4] = compound: C1=CC2=NC=CN=C2C=C1/C=C/3\C(=O)NC(=O)S3
How it was run: as §1

[5] = compound: C1=CC=C(C=C1)C2=NC(=C(N2)C3=CC=NC=C3)C4=CC(=C(C=C4)Cl)O
How it was run: as §1

[6] = compound: C1=CC=C2C(=C1)C3=NNC4=CC=CC(=C43)C2=O
How it was run: as §1

[7] = compound: C1CCN(C1)C(=O)NC2=CC=CC(=C2)NC3=NC=C(C(=N3)NCCC4=CN=CN4)Br
How it was run: as §1

[8] = compound: C1CN(CCC1(CC2=CC=C(C=C2)Cl)N)C3=NC=NC4=C3C=CN4
How it was run: as §1

IRAK-1-4 Inhibitor I = compound: C1COCCN1CCN2C3=CC=CC=C3N=C2NC(=O)C4=CC(=CC=C4)[N+](=O)[O-] [IRAK-1-4 Inhibitor I]
How it was run: as §1

[9] = compound: CC(=O)c1cnc2ccc(-c3cc(Cl)c(O)c(Cl)c3)nc2c1N[C@H]1CC[C@H](CN(C)C)CC1
How it was run: as §1

ralimetinib = compound: CC(C)(C)Cn1c(N)nc2ccc(-c3[nH]c(C(C)(C)C)nc3-c3ccc(F)cc3)nc21 [ralimetinib]
How it was run: as §1

[10] = compound: CC(C)(O)CC(=O)NCCn1ccc2ncnc(Nc3ccc(Oc4cccc(C(F)(F)F)c4)c(Cl)c3)c21
How it was run: as §1

[11] = compound: CC(C)C1=C2N=C(C=C(N2N=C1)NCC3=CC=CC=C3)NCCCCCCN
How it was run: as §1

[12] = compound: CC1=C(C2=C(C=C1)C(=O)C3=CC=CC=C3N2CCCN)C
How it was run: as §1

[13] = compound: CC1=C(C=C(C=C1)NC(=O)C2=CC(=CC=C2)C(C)(C)C#N)NC3=CC4=C(C=C3)N=CN(C4=O)C
How it was run: as §1

[14] = compound: CC1=C(C=C(C=C1)NC(=O)C2=CC(=CC=C2)N(C)C)NC(=O)C3=CC=C(C=C3)O
How it was run: as §1

[15] = compound: CC1=CC=C(C=C1)SC2=C3C=C(SC3=CN=C2)C(=O)N
How it was run: as §1

ibrutinib = compound: C=CC(=O)N1CCC[C@@H](n2nc(-c3ccc(Oc4ccccc4)cc3)c3c(N)ncnc32)C1 [ibrutinib]
How it was run: as §1

[16] = compound: CC1=C(C(CC(=O)N1)C2=CC=C(C=C2)C(F)(F)F)C(=O)NC3=C(C=C4C(=C3)C=NN4)F
How it was run: as §1

Measured: log2 fold change

CLCN6 isoform 5 (UniProt P51797)
inactive: erlotinib -0.031 | [1] -0.008 | [2] 0.053 | [3] -0.073 | [4] -0.015 | [5] -0.157 | [6] -0.032 | [7] 0.009 | [8] 0.086 | IRAK-1-4 Inhibitor I 0.087 | [9] 0.035 | ralimetinib 0.058 | [10] -0.095 | [11] 0.021 | [12] -0.015 | [13] -0.041 | [14] -0.088 | [15] -0.034

CLCN2 (UniProt P51788)
inactive: erlotinib 0.188 | [2] 0.008 | [4] 0.039 | [5] -0.044 | [7] 0.027 | [8] -0.048 | IRAK-1-4 Inhibitor I -0.056 | [9] -0.11 | ralimetinib -0.055 | [10] -0.179 | [11] -0.171 | [12] 0.012 | [13] 0.063 | [14] 0.051 | [15] -0.189

CHPF (UniProt Q8IZ52)
inactive: erlotinib 0.028 | [2] -0.063 | [4] 0.084 | [5] -0.13 | [7] -0.018 | [8] 0.104 | IRAK-1-4 Inhibitor I -0.008 | ibrutinib -0.047 | ralimetinib 0.07 | [10] -0.578 | [11] 0.022 | [12] -0.001 | [13] -0.051 | [14] 0.002

CHST10 (UniProt O43529)
inactive: erlotinib -0.029 | [1] -0.007 | [2] -0.103 | [3] 0.017 | [6] 0.052 | [11] -0.013

CLSPN (UniProt Q9HAW4)
inactive: erlotinib -0.053 | [1] -0.01 | [2] -0.007 | [3] 0.024 | [4] 0.001 | [5] 0.027 | [6] 0.046 | [7] -0.041 | [8] 0.001 | IRAK-1-4 Inhibitor I 0.006 | [9] 0 | ralimetinib -0.006 | [10] 0.026 | [11] -0.029 | [16] 0.011 | [12] 0.001 | [13] 0.067 | [14] -0.02 | [15] 0.004

CLN8 (UniProt Q9UBY8)
inactive: erlotinib -0.048 | [2] 0.114 | [4] 0.234 | [5] -0.015 | [7] -0.014 | [8] 0.126 | IRAK-1-4 Inhibitor I -0.01 | [9] 0.02 | ralimetinib -0.001 | [10] 0.039 | [11] -0.006 | [16] -0.064 | [12] -0.067 | [13] 0.037 | [14] 0.022 | [15] 0.079

CLN5 (UniProt O75503)
inactive: erlotinib -0.084 | [1] 0.037 | [2] -0.039 | [3] 0.016 | [4] 0.141 | [6] -0.084 | [7] 0.048 | [8] 0.042 | [9] 0.04 | [11] 0.035 | [16] 0.119 | [15] 0.051

CLK1 isoform 3 (UniProt P49759)
inactive: erlotinib -0.078 | [2] -0.093 | [4] -0.048 | [5] 0.04 | [7] 0 | [8] 0.048 | IRAK-1-4 Inhibitor I 0.123 | [9] -0.186 | ralimetinib -0.128 | [10] -0.196 | [11] -0.022 | [16] 0.009 | [14] 0.039 | [15] 0.071

CHSY1 (UniProt Q86X52)
inactive: erlotinib -0.101 | [2] -0.172 | [4] -0.06 | [5] -0.023 | IRAK-1-4 Inhibitor I 0.035 | ibrutinib -0.082 | [9] 0.101 | ralimetinib -0.261 | [10] -0.22 | [11] 0.056 | [16] 0.156 | [12] -0.06 | [14] -0.082 | [15] -0.157

CNBP (UniProt P62633)
inactive: erlotinib 0.05 | [2] -0.164 | [4] -0.011 | ibrutinib 0.073 | [9] 0.16 | [11] -0.51 | [15] 0.049

CLEC16A isoform 2 (UniProt Q2KHT3)
inactive: erlotinib 0.067 | [2] -0.054 | [4] -0.09 | [5] -0.012 | IRAK-1-4 Inhibitor I -0.058 | [9] -0.036 | ralimetinib 0 | [10] 0.048 | [11] 0.073 | [16] -0.289 | [12] 0.039 | [13] -0.015 | [14] -0.179 | [15] 0.066

2 neighbouring records from above:
CHSY1 (UniProt Q86X52)
inactive: erlotinib -0.101 | [2] -0.172 | [4] -0.06 | [5] -0.023 | IRAK-1-4 Inhibitor I 0.035 | ibrutinib -0.082 | [9] 0.101 | ralimetinib -0.261 | [10] -0.22 | [11] 0.056 | [16] 0.156 | [12] -0.06 | [14] -0.082 | [15] -0.157

CNBP (UniProt P62633)
inactive: erlotinib 0.05 | [2] -0.164 | [4] -0.011 | ibrutinib 0.073 | [9] 0.16 | [11] -0.51 | [15] 0.049

(cont.)

CHFR (UniProt Q96EP1)
inactive: erlotinib -0.011 | [1] 0.179 | [2] 0.066 | [3] -0.068 | [5] -0.027 | [6] 0.257 | [7] -0.023 | [8] -0.013 | IRAK-1-4 Inhibitor I -0.011 | [9] 0.158 | ralimetinib 0.007 | [10] -0.049 | [11] -0.047 | [16] 0.003 | [12] -0.06 | [13] -0.021 | [14] 0.031 | [15] 0.102

CLIP1 isoform 2 (UniProt P30622)
inactive: erlotinib -0.067 | [2] 0.056 | [4] -0.082 | [5] -0.055 | [7] 0.023 | [8] 0.023 | IRAK-1-4 Inhibitor I 0.026 | [9] 0.05 | ralimetinib -0.002 | [10] -0.04 | [11] -0.054 | [16] 0.017 | [12] -0.025 | [13] 0.053 | [14] 0.021 | [15] -0.088

CLK2 (UniProt P49760)
inactive: [9] 0.054 | [12] 0.043 | [13] -0.003 | [15] 0.049

CLEC11A (UniProt Q9Y240)
inactive: erlotinib -0.006 | [2] -0.183 | [7] 0.005 | [8] -0.133 | [9] 0.025 | [11] 0.022 | [13] -0.043 | [15] 0.189

CHTF18 (UniProt Q8WVB6)
inactive: erlotinib -0.031 | [2] -0.059 | [5] 0.038 | [7] 0.147 | [8] -0.17 | IRAK-1-4 Inhibitor I -0.004 | [9] 0.088 | ralimetinib 0.013 | [10] 0.085 | [11] -0.042 | [16] 0.054 | [12] -0.078 | [13] -0.017 | [14] 0.079 | [15] -0.108

CLSTN1 (UniProt O94985)
inactive: [5] 0.037 | [7] -0.036 | [8] -0.04 | IRAK-1-4 Inhibitor I 0.237 | [9] -0.266 | ralimetinib -0.071 | [10] 0.166 | [16] -0.102 | [13] -0.123 | [14] -0.345 | [15] 0.046

CINP isoform 3 (UniProt Q9BW66)
inactive: [1] 0.016 | [3] 0.015 | [4] -0.015 | [5] 0.081 | [6] -0.102 | [7] -0.015 | [8] -0.056 | IRAK-1-4 Inhibitor I 0.074 | ibrutinib 0 | [9] -0.012 | ralimetinib 0.047 | [10] -0.051 | [16] 0.072 | [12] -0.168 | [13] 0.039 | [14] 0.009 | [15] -0.005

From the supplement of paper PMC10849652
